Results: PubChem BioAssay AID2685 (National Center for Advancing Translational Sciences (NCATS), 2010)
Out of some 320,000 compounds screened, about 2,100 (0.66%) were called active. Inconclusive means that the source gave no clear call. Such entries were picked first, then a sample of the others. The call rests on the fitted dose curve; in most records, active means well fitted inhibition curve with a large enough effect in the signal ratio, with a control signal flat (not every such curve was filed as active); inconclusive means small, poorly fitted or top-dose-only effect, or effect the other way, or a change in a side signal; inactive means flat fitted curve, though single readings scatter; the % refers to the signal ratio. Potencies beside an inconclusive call are fits to weak or partial responses and may not hold up.

Experiment: qHTS Assay for Lipid Storage Modulators in Drosophila S3 Cells
Details: BODIPY lipid droplet fluorescence, 18-24 h, cells fed with added oleic acid; lipid storage change, negative = inhibition: at 46.1 µM (top of the series) unless noted
Summary of the method: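 Drosophila S3 cells got compounds at several concentrations plus oleic acid (400 uM solution). Laser-scanning cytometry with 488 nm excitation read lipid droplets at 500-530 nm and cells at 575-640 nm. Percent activity was relative to 20 uM Triacsin C.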
On the % scale 0 is the no-effect control and ±100 the full control effect; potency means the concentration at half of the fitted maximal effect.

| Structure (SMILES) | lipid storage change, negative = inhibition | Potency | outcome |
| --- | --- | --- | --- |
| CC(C)c1ccc(NC(=O)Cc2ccc(NC3=NC4CS(=O)(=O)CC4S3)cc2)cc1 (configuration not stated) | inconclusive: 38.1% | – | – |
| CCN(CC(=O)Nc1ccc2c(c1)OCCO2)C(=O)COc1cc(C)ccc1Cl | – | inconclusive: 0.092 µM [falling, full curve, poor fit] | – |
| CCc1nnc(NC(=O)Cc2ccc(S(=O)(=O)N3CCCCC3)cc2)s1 | inconclusive: 14.8% | – | – |
| Cc1c(C(=O)OCCOC(C)C)[nH]c2c1C(=O)CC(c1ccco1)C2 (configuration not stated) | inconclusive: 23% | – | – |
| Cc1sc2ncnc(N3CCC(C(=O)N(C)CC(=O)Nc4ccccc4Cl)CC3)c2c1C | inconclusive: 15.6% | – | – |
| COCCN(C(=O)CNC(=O)c1ccco1)C(C(=O)NC1CCCC1)c1cccc(OC)c1 (configuration not stated) | inconclusive: -43% | – | – |
| Cc1ccc(OCC(=O)NNC(=S)NC(=O)c2cccs2)c(C)c1 | inconclusive: 20.9% | – | – |
| COc1ccc(-c2csc(/C(C#N)=C\c3ccc(OC)c([N+](=O)[O-])c3)n2)cc1 | inconclusive: -1.04% | – | – |
| O=C(c1ccc(Cl)cc1)c1ccc(Oc2cc(NN3CCCCC3)c([N+](=O)[O-])cc2[N+](=O)[O-])cc1 | – | inconclusive: 0.58 µM [activator, single point] | – |
| CSc1nc(N2CCN(Cc3ccc4c(c3)OCO4)CC2)c2ccccc2n1 | inconclusive: -86.4% | – | – |
| CN(C)S(=O)(=O)c1ccc(N2CCCC2)c(C(=O)NCC2CCCO2)c1 (configuration not stated) | inconclusive: -7.27% | – | – |
| O=C(N/N=C/c1ccc(F)cc1)c1cc[n+]([O-])cc1 | – | inconclusive: 3.66 µM [activator, full curve] | – |
| C/C(CCc1ccccc1)=N\NC(=O)CC(=O)NCCc1ccccc1 | inconclusive: 1.29% | – | – |
| O=C(CSc1nnc(-c2ccco2)c(-c2ccco2)n1)c1ccccc1 | inconclusive: 0.408% | – | – |
| COc1ccc(/C=C/C(=O)C2CC2)cc1Cn1nc(C)c([N+](=O)[O-])c1C | inconclusive: 18.1% | – | – |
| Cc1cc(C)cc(N2CCN(C(=O)N3CCOCC3)CC2)c1 | – | inconclusive: 20.6 µM [activator, partial curve, poor fit] | – |
| COc1ccc2c(c1)CC(C(=O)Nc1ccc(Cl)cc1)/C(=N/O)O2 (configuration not stated) | inconclusive: 1.7% | – | – |
| CC(=O)c1ccc(N(C(=O)c2csnn2)C(C(=O)NC(C)(C)C)c2cccs2)cc1 (configuration not stated) | inconclusive: 1.63% | – | – |
| c1ccc(CN2CCN(c3nc4ccccc4n4cnnc34)CC2)cc1 | – | inconclusive: 6.51 µM [activator, single point] | – |
| OCCN(CCO)c1ccc(C(c2ccccc2Cl)c2ccc(N(CCO)CCO)cc2Cl)c(Cl)c1 | – | inconclusive: 18.4 µM [cytotoxic, single point] | – |
| COc1ccc2c(c1OC)C(=O)N(c1ccc(F)cc1)C2 | inconclusive: 22.9% | – | – |
| CCOc1cc(/C=C/c2cccc[n+]2C)ccc1OCC(=O)Nc1ccc(C)cc1 | – | – | inactive [at 46.1 µM] |
| COC(=O)/C=C1/S/C(=N/NC(=O)c2ccccc2)NC1=O | inconclusive: -13.3% | – | – |
| Cc1cccc(C)c1NC(=O)C1=C(O)c2sccc2N(C)S1(=O)=O | inconclusive: 5.77% | – | – |
| Cn1nc(N)nc1N1CCN(c2ccc(F)cc2)CC1 | inconclusive: 10.8% | – | – |
| CS(=O)(=O)Nc1ccc(-c2ccc(/C=C3\SC(N)=NC3=O)o2)cc1 | inconclusive: -1.8% | – | – |

| Structure (SMILES) | lipid storage change, negative = inhibition | Potency | outcome |
| --- | --- | --- | --- |
| COc1ccc(NC(=O)c2sc3ncnc(N4CCN(c5ccccn5)CC4)c3c2C)cc1Cl | – | inconclusive: 10.3 µM [falling, single point] | – |
| COc1ccc(Cl)cc1NC(=O)C/C(C)=N/NC(=O)COc1ccc(C)cc1 | – | inconclusive: 5.17 µM [falling, single point] | – |
| CCC(C)c1ccc(S(=O)(=O)N2CCN3CCCC3C2)cc1 (configuration not stated) | – | – | inactive [at 46.1 µM] |
| COC(=O)c1sccc1NC(=O)CSc1ccccc1NS(=O)(=O)c1ccc(Cl)cc1 | inconclusive: 11.6% | – | – |
| Cc1csc(NC(=O)C2CCCC2)n1 | inconclusive: 60.2% | – | – |
| O=C(NC1CCN(S(=O)(=O)c2ccc(Cl)c(F)c2)CC1)c1cccnc1 | inactive: -20% | – | – |
| CN(CC(=O)Nc1cccc(F)c1)C(=O)c1ccc(OCc2ccccc2)cc1 | – | inconclusive: 0.92 µM [falling, full curve, poor fit] | – |
| CCN(CC(=O)Nc1cccc(S(=O)(=O)N(C)c2ccccc2)c1)Cc1cccs1 | – | inconclusive: 0.291 µM [falling, full curve, poor fit] | – |
| CC1Nc2ccccc2C(=O)N1NS(C)(=O)=O (configuration not stated) | inconclusive: -28.3% | – | – |
| COc1ccc(OC)c(N/C(=N\c2nc(C)cc(C)n2)NC(=O)c2ccco2)c1 | – | inconclusive: 6.51 µM [activator, single point] | – |
| COc1cc(/C=N/NC(=O)/C(=C\c2ccc3c(c2)OCO3)NC(=O)c2ccccc2)ccc1O | inconclusive: 17.8% | – | – |
| Cc1nnc(NC(=O)CSc2n[nH]c(-c3ccccc3)n2)s1 | inconclusive: -20.3% | – | – |
| COc1ccccc1NC(=O)CSc1nc2ccccc2n1C(C)=O | inconclusive: 43.5% | – | – |
| N#C/C(=C\c1ccc(F)c(F)c1)C(=O)NC1CCCCC1 | – | inconclusive: 8.2 µM [falling, partial curve] | – |
| CCn1c(CNc2ccccc2Cl)nnc1SCCN1CCCCC1 | inconclusive: 8.34% | – | – |
| COC(=O)C1=C(C)N(Cc2ccccc2)C(=NCCN2CCOCC2)N[C@H]1CCc1ccccc1 | inconclusive: -20.7% | – | – |
| COc1cc(C2N(c3ccccc3)CCN2c2ccccc2)cc(OC)c1OC | inconclusive: 13.9% | – | – |
| COc1ccc2c(COC(=O)CC3Sc4ccccc4NC3=O)cc(=O)oc2c1 (configuration not stated) | inconclusive: 71.9% | – | – |
| COc1ccc(NC(=O)CN(C)C(=O)c2cc(-c3ccc(C)o3)nc3ccccc23)cc1 | inconclusive: 37.7% | – | – |
| CC(C)(C)/C(COc1ccccc1[N+](=O)[O-])=N/O | inconclusive: -7.92% | – | – |
| COc1ccc(CN2CCN(C3CCSCC3)CC2CCO)c(C)c1C (configuration not stated) | – | inconclusive: 18.4 µM [activator, single point] | – |
| COc1ccc(/C(O)=C2/C(=O)C(=O)N(CCCN3CCOCC3)C2c2ccc(N(C)C)cc2)cc1 (configuration not stated) | – | inconclusive: 29.1 µM [activator, single point] | – |
| Cc1ccc2c(NC(=O)c3ccco3)cccc2n1 | inconclusive: 469% | – | – |
| Cc1cccc(NS(=O)(=O)c2cc3c(cc2C)n(C)c(=O)c(=O)n3C)c1 | – | inconclusive: 7.31 µM [falling, partial curve] | – |
| COc1ccc(CNC(=O)c2ccc(Cl)c(S(=O)(=O)N3CCOCC3)c2)cc1OC | – | active: 1.64 µM | – |
| N#Cc1ccccc1OCC(=O)N1N=C(c2cccs2)CC1c1ccco1 (configuration not stated) | inconclusive: -29.2% | – | – |

| Structure (SMILES) | lipid storage change, negative = inhibition | Potency | outcome |
| --- | --- | --- | --- |
| N#CCc1cc2ccc3cccc4ccc(c1)c2c34 | inconclusive: 52.8% | – | – |
| COc1ccc(S(=O)(=O)N2CCCOC2CNC(=O)C(=O)NCCc2ccco2)cc1OC (configuration not stated) | – | inconclusive: 16.4 µM [activator, single point] | – |
| NS(=O)(=O)c1ccc(NC(=O)c2ccc(-c3ccccc3)cc2)cc1 | – | inconclusive: 6.51 µM [falling, single point] | – |
| O=C(COC(=O)c1ccc(S(=O)(=O)N2CCCC2)cc1)Nc1cccc(Br)c1 | – | inconclusive: 0.13 µM [falling, full curve, poor fit] | – |
| CCC(C(=O)OCC(=O)N1CCN(S(=O)(=O)c2ccc(C)cc2C)CC1)c1ccccc1 (configuration not stated) | inconclusive: -41.4% | – | – |
| COc1ccccc1C(=O)NC(=O)COC(=O)Cc1ccccc1[N+](=O)[O-] | inconclusive: 43.2% | – | – |
| CCc1ccccc1-n1c(SCC(=O)N2CCCC2)nnc1-c1ccccn1 | inconclusive: 29% | – | – |
| CNc1nc(Sc2ccc(C)cc2)cc(C(F)(F)F)n1 | inconclusive: 16.7% | – | – |
| O=C(NCC(=O)N(c1cccnc1)C(C(=O)NC1CCCC1)c1ccco1)c1cccs1 (configuration not stated) | inconclusive: -22.6% | – | – |
| CC(=O)c1ccccc1OCCCN1CCCCC1 | – | inconclusive: 6.51 µM [falling, single point] | – |
| CC1CN(CCCOc2ccccc2-c2ccccc2)CC(C)O1 (configuration not stated) | inconclusive: 2.02% | – | – |
| O=C(NCCS(=O)(=O)N1CCc2ccccc2C1)c1ccccc1 | inconclusive: 43.9% | – | – |
| Cc1ccc(CN2CCN(/N=C/c3ccc(C)s3)CC2)cc1 | inconclusive: 15% | – | – |
| NC(=O)NC(=O)CSc1ccccc1 | inconclusive: -32.2% | – | – |
| COc1ccc(NC(=O)c2ccc(S(=O)(=O)N3CCOCC3)o2)cc1 | inconclusive: 6.44% | – | – |
| CC1=C(C(=O)N2CCOCC2)C(c2ccc(O)cc2)NC(=S)N1 (configuration not stated) | inconclusive: 6.29% | – | – |
| CCOC(=O)/C(C#N)=C/c1c[nH]c2ccccc12 | inconclusive: -2.04% | inconclusive: 23.1 µM [falling, single point] | – |
| Cc1c(C(=O)N2CCCCC2C)sc2nc3n(c(=O)c12)CCC3 (configuration not stated) | – | inconclusive: 0.58 µM [activator, full curve] | – |
| O=C(c1ccc([N+](=O)[O-])cc1)N1CCN(C(=O)C2CCCCC2)CC1 | inconclusive: -1.15% | – | – |
| COc1ccc2nc(NC(=O)CSc3nnc(-c4ccoc4C)n3C)sc2c1 | inconclusive: 21.8% | – | – |
| COc1ccc(C(=O)CC(CC(=O)c2ccc(OC)cc2)C(=O)O)cc1 | – | inconclusive: 0.0651 µM [activator, full curve, poor fit] | – |
| Cc1oc2ccccc2c1CNC(=O)N(C)C | inconclusive: 13.3% | – | – |
| CCN(CC)C(=O)C1CCCN(c2ncnc3c2cnn3-c2cccc(C)c2)C1 (configuration not stated) | inconclusive: -35.4% | – | – |
| N#Cc1c(C#N)c(-c2ccccc2)n(-c2ccc(C(=O)O)cc2)c1N | inconclusive: -13.5% | – | – |

Structural class: the entries above containing an NH in an aromatic ring.

| Structure (SMILES) | lipid storage change, negative = inhibition | Potency | outcome |
| --- | --- | --- | --- |
| Cc1c(C(=O)OCCOC(C)C)[nH]c2c1C(=O)CC(c1ccco1)C2 (configuration not stated) | inconclusive: 23% | – | – |
| Cc1nnc(NC(=O)CSc2n[nH]c(-c3ccccc3)n2)s1 | inconclusive: -20.3% | – | – |
| CCOC(=O)/C(C#N)=C/c1c[nH]c2ccccc12 | inconclusive: -2.04% | inconclusive: 23.1 µM [falling, single point] | – |
